PubChem BioAssay AID1259267 | Sanger Institute – 2017
Purpose: 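Essential and drug-synergistic knock-downs in GP5D bowel cancer cells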 (primary screen). System: human GP5D colorectal cancer cells. Reagents: siRNA pool against human genes. Challenge: anchor drugs at low dose: BYL719 1 µM, cetuximab 5 µg/ml, trametinib 10 nM, or DMSO vehicle. Measurement: 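Mean replicate viability versus non-targeting pool, given as knock-down-alone robust z-score, DMSO fraction, and synergy with low-dose BYL719, cetuximab or trametinib (1 µM, 5 µg/ml, 10 nM)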. Reading the numbers: robust z-score, knock-down alone and viability with DMSO: higher = more viable cells; synergy score with trametinib and synergy score with BYL719 and synergy score with cetuximab: higher = stronger synthetic lethal synergy with drug. Active means: 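Active (essential alone) if knock-down without drug gives robust z-score under -3; drug synergy does not count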. Calls: active = essential alone; inactive = not essential.
The whole screen tested 794 reagents; this is a part drawn at random. Of all reagents, 9 (1.1%) were called active. 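Viability capped at 1; calls reflect loss of viability from knock-down alone, not synergy with drugs.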 The record does not give: the amount of reagent, the time to read-out.

| gene knocked down | robust z-score, knock-down alone | viability with DMSO (fraction of control) | synergy score with trametinib | synergy score with BYL719 | synergy score with cetuximab | call |
| --- | --- | --- | --- | --- | --- | --- |
| NRK | 0.817 | 1 | -0.197 | -0.205 | -0.142 | inactive |
| PKN2 | -1.39 | 0.532 | -0.188 | -0.153 | -0.0289 | inactive |
| HIPK1 | 0.817 | 1 | -0.153 | -0.237 | -0.142 | inactive |
| PHKG1 | -0.442 | 0.733 | -0.15 | -0.299 | -0.0808 | inactive |
| PRKDC | -0.17 | 0.791 | 0.00731 | -0.00825 | -0.0936 | inactive |
| MAP3K14 | -0.709 | 0.677 | -0.326 | -0.0958 | -0.311 | inactive |
| SNRK | 0.546 | 0.943 | -0.0318 | 0.0592 | 0 | inactive |
| RIOK1 | 0.0157 | 0.83 | -0.189 | -0.127 | -0.14 | inactive |
| PRKAR1B | 0.817 | 1 | -0.0122 | -0.158 | -0.142 | inactive |
| CHD4 | -2.57 | 0.282 | 0.0722 | -0.0491 | 0.0466 | inactive |
| LRRK1 | 0.817 | 1 | -0.101 | -0.27 | 0.025 | inactive |
| EFNB3 | -0.469 | 0.728 | -0.228 | 0.0167 | -0.0128 | inactive |
| PDK3 | -0.711 | 0.676 | -0.0799 | -0.0291 | -0.203 | inactive |
| NAGK | -2.23 | 0.353 | -0.264 | -0.172 | -0.0272 | inactive |
| DDR2 | -0.358 | 0.751 | 0.00602 | -0.372 | -0.0411 | inactive |
| HK2 | -0.405 | 0.741 | 0.197 | -0.0247 | 0.131 | inactive |
| TK2 | 0.817 | 1 | -0.0445 | -0.361 | -0.142 | inactive |
| FLT4 | -0.264 | 0.771 | -0.0199 | -0.505 | -0.109 | inactive |
| CDC42BPB | 0.817 | 1 | -0.0645 | -0.131 | -0.0501 | inactive |
| NRAS | 0.0639 | 0.84 | 0.259 | -0.225 | -0.222 | inactive |
| CDK7 | 0.817 | 1 | 0.133 | -0.108 | -0.142 | inactive |
| STRADB | -1.01 | 0.613 | -0.349 | -0.285 | -0.177 | inactive |
| BMPR2 | 0.307 | 0.892 | 0.283 | 0.214 | 0.234 | inactive |
| BMPR1B | -0.794 | 0.659 | -0.187 | -0.245 | -0.325 | inactive |
| MAP3K9 | -0.0729 | 0.811 | -0.193 | -0.31 | -0.228 | inactive |
| HIPK4 | 0.817 | 1 | -0.133 | -0.334 | -0.142 | inactive |
| AK4 | -0.396 | 0.743 | -0.0501 | -0.375 | -0.186 | inactive |
| PAPSS1 | 0.817 | 1 | 0.146 | -0.109 | -0.142 | inactive |
| CDKN1B | 0.777 | 0.992 | -0.0585 | -0.00126 | 0.0222 | inactive |
| STK11 | -1.76 | 0.455 | 0.209 | -0.118 | 0.0909 | inactive |
| CDK20 | 0.0826 | 0.844 | -0.0405 | 0.0377 | -0.16 | inactive |
| CDKN2B | 0.817 | 1 | -0.197 | -0.361 | -0.142 | inactive |
| FES | -0.983 | 0.619 | -0.112 | -0.182 | -0.0191 | inactive |
| GALK1 | -0.846 | 0.648 | 0.187 | -0.119 | 0.0257 | inactive |
